Results reported in patent US20240376153A1, “CNP CYCLIC PEPTIDE, AND MEDICINE, EXTERNAL PREPARATION AND COSMETIC EACH CONTAINING SAID CYCLIC PEPTIDE” (Igisu Co., Ltd., priority 2015, published 2024).
“Also recorded” adds a separate entry of the source. At least one peptide structure holds a part that was inferred or is arguable (an end, a ring closure or a residue). Some entries repeat one wording, which the source may state once for all of them. Positions of bridges follow the written chain, without caps; N, C: chain ends. Residues, ends and D or L forms follow the SMILES beside them.

Test system: affected site of skin
Assay: Effect on skin of cyclic peptides in which amino acid was substituted
Assay type: in vivo, human
Method: Formulations A to E refers to cyclic peptide concentration of 1, 5, 30, 100, 500 μg/ml, respectively.

[1] = atopic dermatitis, Formulation B (5 μg/ml in purified water) applied to affected site

CC[C@H](C)[C@@H]1NC(=O)[C@H](CCCNC(=N)N)NC(=O)[C@H](CC(=O)O)NC(=O)[C@H](CC(C)C)NC(=O)[C@H](CCCCN)NC(=O)[C@H](CC(C)C)NC(=O)CNC(=O)[C@H](Cc2ccccc2)NC(=O)[C@@H](N)CSSC[C@@H](C(=O)O)NC(=O)CNC(=O)[C@H](Cc2ccccc2)NC(=O)CNC(=O)[C@H](CO)NC(=O)[C@H](CCSC)NC(=O)[C@H](CO)NC(=O)CNC1=O [SEQ ID NO: 21] (H-CFGLKLDRIGSMSGFGC-OH; disulfide 1-17; N-terminus and C-terminus assumed)
Post-treatment diagnostic skin impression (rough skin, wrinkles, seborrhea, Formulation B (5 μg/ml)): After 1 min, itches were eliminated. After 3 min,; also recorded: desiccation was improved, skin was given resilience and

CC[C@H](C)[C@@H]1NC(=O)[C@H](CCCNC(=N)N)NC(=O)[C@H](CC(=O)O)NC(=O)[C@H](CC(C)C)NC(=O)[C@H](CCCCN)NC(=O)[C@H](CC(C)C)NC(=O)CNC(=O)[C@H](Cc2ccccc2)NC(=O)[C@@H](N)CSSC[C@@H](C(=O)O)NC(=O)CNC(=O)[C@H](CC(C)C)NC(=O)CNC(=O)[C@H](C)NC(=O)[C@H](CCSC)NC(=O)[C@H](CO)NC(=O)CNC1=O [SEQ ID NO: 16] (H-CFGLKLDRIGSMAGLGC-OH; disulfide 1-17; N-terminus and C-terminus assumed)
Post-treatment diagnostic skin impression [1]: Immediately after application, itches were eliminated,; also recorded: erythema and scales were remarkably improved
Post-treatment diagnostic skin impression (psoriasis vulgaris, Formulation C (30 μg/ml)): After 3 min, crusts, scales, erythema and infiltration was; also recorded: remitted. After 10 min, erythema was further remitted

CC[C@H](C)[C@@H]1NC(=O)CNC(=O)[C@H](CO)NC(=O)[C@H](CCSC)NC(=O)[C@H](CO)NC(=O)CNC(=O)[C@H]([C@@H](C)CC)NC(=O)[C@H](CCCNC(=N)N)NC(=O)[C@H](CC(=O)O)NC(=O)[C@H](CC(C)C)NC(=O)[C@H](CCCCN)NC(=O)[C@H](CC(C)C)NC(=O)CNC(=O)[C@H](Cc2ccccc2)NC(=O)[C@@H](N)CSSC[C@@H](C(=O)O)NC(=O)CNC1=O [SEQ ID NO: 19] (H-CFGLKLDRIGSMSGIGC-OH; disulfide 1-17; N-terminus and C-terminus assumed)
Post-treatment diagnostic skin impression [1]: Immediately after application, itches were eliminated; also recorded: After 3 days, erythema was eliminated, skin was given; also recorded: resilience, wrinkles were shallowed
